In paper doi:10.1101/2022.02.24.481869:
Where two headings read alike, the source gives them in different places. No constants are given. Whether binding was seen depends on the method and setting. Some entries that bind do so weakly or less than the wild type. Tags and fused reporters may be left off the sequences shown.

Protein sequences, listed by entry. Tags and fused reporters are not part of them.
UniProt P21462: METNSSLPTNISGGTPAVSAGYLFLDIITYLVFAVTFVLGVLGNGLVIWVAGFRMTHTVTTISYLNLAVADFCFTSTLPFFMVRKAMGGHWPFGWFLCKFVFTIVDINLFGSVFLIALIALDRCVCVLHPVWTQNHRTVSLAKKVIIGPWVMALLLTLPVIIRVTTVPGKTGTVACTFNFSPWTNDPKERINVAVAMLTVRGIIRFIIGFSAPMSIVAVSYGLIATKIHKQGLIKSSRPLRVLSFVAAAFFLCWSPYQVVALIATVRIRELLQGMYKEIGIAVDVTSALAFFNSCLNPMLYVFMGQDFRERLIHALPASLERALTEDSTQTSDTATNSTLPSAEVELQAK
UniProt P25090: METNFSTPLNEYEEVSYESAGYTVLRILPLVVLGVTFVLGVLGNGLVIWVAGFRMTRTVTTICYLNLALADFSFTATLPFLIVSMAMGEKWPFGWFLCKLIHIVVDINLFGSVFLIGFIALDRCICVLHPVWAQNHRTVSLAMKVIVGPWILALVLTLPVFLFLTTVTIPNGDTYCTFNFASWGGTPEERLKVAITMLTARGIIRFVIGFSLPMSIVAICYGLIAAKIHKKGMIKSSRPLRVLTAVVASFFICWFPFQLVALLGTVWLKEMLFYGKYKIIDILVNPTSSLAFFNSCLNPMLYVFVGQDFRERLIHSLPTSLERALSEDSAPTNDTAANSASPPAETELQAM

Legend:
Assay in all cases: AlphaScreen or HTRF
[1] = biological target: formyl peptide receptor 1 (FPR1), SNAP-tagged, on cells (UniProt P21462)
[2] = biological target: formyl peptide receptor 2 (FPR2), SNAP-tagged, on cells (UniProt P25090)
[3] = biological target: formyl peptide receptor 1 (FPR1), SNAP-tagged, on cells (UniProt P21462); remark: listed apart in the source
[4] = biological target: formyl peptide receptor 2 (FPR2), SNAP-tagged, on cells (UniProt P25090); remark: listed apart in the source

Measured: binding

B1: FAM3 metabolism regulating signaling molecule D (FAM3D), XL665-tagged (ligand, UniProt Q96BQ1 26-224)
chain: YMSFSMKTIRLPRWLAASPTKEIQVKKYKCGLIKPCPANYFAFKICSGAANVVGPTMCFEDRMIMSPVKNNVGRGLNIALVNGTTGAVLGQKAFDMYSGDVMHLVKFLKEIPGGALVLVASYDDPGTKMNDESRKLFSDLGSSYAKQLGFRDSWVFIGAKDLRGKSPFEQFLKNSPDTNKYEGWPELLEMEGCMPPKPF
modifications: XL665 label (position not given)
binds: [1] | [2] | [3] | [4]
